PMC13254535, “The RecBCD complex interacts directly with the DNA sliding clamp in Escherichia coli” (Nucleic Acids Research, 2026)
Results are given in words; binding and its absence hold for the method and conditions named. Binding seen in cells or lysates may run through a third protein. Some entries that bind do so weakly or less than the wild type. Where a sequence is shown, tags or fusion partners need not be part of it.

Protein sequences, listed by entry. Tags and fused reporters are not part of them.
UniProt P0A988: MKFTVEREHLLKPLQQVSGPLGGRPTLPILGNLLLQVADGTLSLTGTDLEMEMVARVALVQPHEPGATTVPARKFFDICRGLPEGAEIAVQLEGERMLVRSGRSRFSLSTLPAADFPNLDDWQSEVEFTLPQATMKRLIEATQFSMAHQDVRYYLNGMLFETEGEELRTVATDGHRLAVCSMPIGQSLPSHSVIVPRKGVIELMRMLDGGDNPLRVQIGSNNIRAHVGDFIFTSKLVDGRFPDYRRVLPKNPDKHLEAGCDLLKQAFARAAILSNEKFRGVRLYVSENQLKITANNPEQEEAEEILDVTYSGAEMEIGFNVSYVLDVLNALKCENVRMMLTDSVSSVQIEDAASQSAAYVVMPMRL

Target: T1, N-terminally his-tagged RecB expressed from pBAD30-recB (Escherichia coli) (UniProt P08394)
T1 sequence: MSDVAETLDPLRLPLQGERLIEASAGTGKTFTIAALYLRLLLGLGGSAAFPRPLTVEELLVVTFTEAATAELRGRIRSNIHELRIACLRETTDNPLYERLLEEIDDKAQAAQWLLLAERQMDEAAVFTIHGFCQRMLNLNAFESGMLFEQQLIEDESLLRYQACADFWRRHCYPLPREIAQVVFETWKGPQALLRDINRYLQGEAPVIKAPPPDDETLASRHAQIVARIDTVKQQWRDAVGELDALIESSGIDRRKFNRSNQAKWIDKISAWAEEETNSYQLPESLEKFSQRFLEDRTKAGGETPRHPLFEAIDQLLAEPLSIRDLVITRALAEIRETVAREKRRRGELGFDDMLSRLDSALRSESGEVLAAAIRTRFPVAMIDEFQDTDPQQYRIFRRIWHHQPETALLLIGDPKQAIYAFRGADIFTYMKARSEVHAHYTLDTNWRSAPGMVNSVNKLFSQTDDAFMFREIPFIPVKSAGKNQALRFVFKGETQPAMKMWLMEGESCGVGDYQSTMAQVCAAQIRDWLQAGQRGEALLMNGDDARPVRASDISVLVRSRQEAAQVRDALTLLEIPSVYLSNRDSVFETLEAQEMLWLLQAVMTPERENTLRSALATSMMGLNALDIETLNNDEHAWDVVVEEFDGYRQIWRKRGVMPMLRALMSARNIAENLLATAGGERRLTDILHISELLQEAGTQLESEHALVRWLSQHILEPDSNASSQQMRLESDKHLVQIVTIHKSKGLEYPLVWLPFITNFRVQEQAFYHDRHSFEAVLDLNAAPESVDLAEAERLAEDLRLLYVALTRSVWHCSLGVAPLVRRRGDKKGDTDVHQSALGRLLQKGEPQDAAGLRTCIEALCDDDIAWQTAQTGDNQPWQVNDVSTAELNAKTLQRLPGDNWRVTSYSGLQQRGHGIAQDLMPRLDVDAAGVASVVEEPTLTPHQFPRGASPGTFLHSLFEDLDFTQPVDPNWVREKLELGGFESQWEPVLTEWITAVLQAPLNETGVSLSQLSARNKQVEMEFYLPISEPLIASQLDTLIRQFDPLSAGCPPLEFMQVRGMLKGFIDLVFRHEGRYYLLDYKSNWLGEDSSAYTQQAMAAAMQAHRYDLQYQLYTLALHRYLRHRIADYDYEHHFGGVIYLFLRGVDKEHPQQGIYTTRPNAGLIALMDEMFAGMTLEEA
Test: co-IP; His-tagged RecB as bait on Dynabeads His-Tag Isolation and Pulldown beads; lysate of formaldehyde-crosslinked MG1655; 30 min at 4°C; washes with 300 mM NaCl; elution with 300 mM imidazole; Western blot with anti-β-clamp

binding: binds
Substance: β-clamp (DnaN), endogenous in E. coli MG1655 (from UniProt P0A988 1-366)
